Reference: patent publication US20230310621A1, “COMPLEXES FOR THE DELIVERY OF PROTEINACEOUS AGENTS” (priority 2020, published 2023)

Assay: DLS monitoring of PAEC formation with different surfactants
Type: physicochemical
Conditions: P24/CpG/surfactant/DA002 50/20/2 to 100/90 μg/mL

| Compound | group of surfactant by PAEC formation (DLS) |
| --- | --- |
| CCCCCCCCCCCCOS(=O)(=O)[O-].[Na+] [Free SDS, sodium dodecyl sulphate] | Group 2 |
| Tween 85 | Group 3 |
| C[C@H](CCC(=O)O)[C@H]1CC[C@H]2[C@@H]3CC[C@@H]4C[C@H](O)CC[C@]4(C)[C@H]3C[C@H](O)[C@]12C [D-Chol, deoxycholate] | Group 1 |
| C[C@H](CCC(=O)[O-])[C@H]1CC[C@H]2[C@@H]3[C@H](O)C[C@@H]4C[C@H](O)CC[C@]4(C)[C@H]3C[C@H](O)[C@]12C.[Na+] [Chol, sodium salt of cholic acid] | Group 1 |
